No constants are given. Whether binding was seen depends on the method and setting. In cells and extracts the contact can be indirect.
Molecular target: CHD1-HA fusion protein (CHD1 with C-terminal 3XHA epitope tag) (Drosophila melanogaster) (UniProt Q7KU24)
Assay: co-IP; 500 ug protein extract of 0-12 hr embryos with anti-HA affinity gel beads in HEGN100 buffer (10 mM HEPES pH 8.0, 1 mM EDTA, 100 mM NaCl, 0.05% Tween-20, 10% glycerol), 3 hr at 4°; five alternating washes of HEGN100 and HEGN500 (500 mM NaCl); blots with anti-CHD1 and anti-dRtf1; four biological replicates

Amino acid sequences for entries named in this document (tags omitted).
UniProt Q7KU24: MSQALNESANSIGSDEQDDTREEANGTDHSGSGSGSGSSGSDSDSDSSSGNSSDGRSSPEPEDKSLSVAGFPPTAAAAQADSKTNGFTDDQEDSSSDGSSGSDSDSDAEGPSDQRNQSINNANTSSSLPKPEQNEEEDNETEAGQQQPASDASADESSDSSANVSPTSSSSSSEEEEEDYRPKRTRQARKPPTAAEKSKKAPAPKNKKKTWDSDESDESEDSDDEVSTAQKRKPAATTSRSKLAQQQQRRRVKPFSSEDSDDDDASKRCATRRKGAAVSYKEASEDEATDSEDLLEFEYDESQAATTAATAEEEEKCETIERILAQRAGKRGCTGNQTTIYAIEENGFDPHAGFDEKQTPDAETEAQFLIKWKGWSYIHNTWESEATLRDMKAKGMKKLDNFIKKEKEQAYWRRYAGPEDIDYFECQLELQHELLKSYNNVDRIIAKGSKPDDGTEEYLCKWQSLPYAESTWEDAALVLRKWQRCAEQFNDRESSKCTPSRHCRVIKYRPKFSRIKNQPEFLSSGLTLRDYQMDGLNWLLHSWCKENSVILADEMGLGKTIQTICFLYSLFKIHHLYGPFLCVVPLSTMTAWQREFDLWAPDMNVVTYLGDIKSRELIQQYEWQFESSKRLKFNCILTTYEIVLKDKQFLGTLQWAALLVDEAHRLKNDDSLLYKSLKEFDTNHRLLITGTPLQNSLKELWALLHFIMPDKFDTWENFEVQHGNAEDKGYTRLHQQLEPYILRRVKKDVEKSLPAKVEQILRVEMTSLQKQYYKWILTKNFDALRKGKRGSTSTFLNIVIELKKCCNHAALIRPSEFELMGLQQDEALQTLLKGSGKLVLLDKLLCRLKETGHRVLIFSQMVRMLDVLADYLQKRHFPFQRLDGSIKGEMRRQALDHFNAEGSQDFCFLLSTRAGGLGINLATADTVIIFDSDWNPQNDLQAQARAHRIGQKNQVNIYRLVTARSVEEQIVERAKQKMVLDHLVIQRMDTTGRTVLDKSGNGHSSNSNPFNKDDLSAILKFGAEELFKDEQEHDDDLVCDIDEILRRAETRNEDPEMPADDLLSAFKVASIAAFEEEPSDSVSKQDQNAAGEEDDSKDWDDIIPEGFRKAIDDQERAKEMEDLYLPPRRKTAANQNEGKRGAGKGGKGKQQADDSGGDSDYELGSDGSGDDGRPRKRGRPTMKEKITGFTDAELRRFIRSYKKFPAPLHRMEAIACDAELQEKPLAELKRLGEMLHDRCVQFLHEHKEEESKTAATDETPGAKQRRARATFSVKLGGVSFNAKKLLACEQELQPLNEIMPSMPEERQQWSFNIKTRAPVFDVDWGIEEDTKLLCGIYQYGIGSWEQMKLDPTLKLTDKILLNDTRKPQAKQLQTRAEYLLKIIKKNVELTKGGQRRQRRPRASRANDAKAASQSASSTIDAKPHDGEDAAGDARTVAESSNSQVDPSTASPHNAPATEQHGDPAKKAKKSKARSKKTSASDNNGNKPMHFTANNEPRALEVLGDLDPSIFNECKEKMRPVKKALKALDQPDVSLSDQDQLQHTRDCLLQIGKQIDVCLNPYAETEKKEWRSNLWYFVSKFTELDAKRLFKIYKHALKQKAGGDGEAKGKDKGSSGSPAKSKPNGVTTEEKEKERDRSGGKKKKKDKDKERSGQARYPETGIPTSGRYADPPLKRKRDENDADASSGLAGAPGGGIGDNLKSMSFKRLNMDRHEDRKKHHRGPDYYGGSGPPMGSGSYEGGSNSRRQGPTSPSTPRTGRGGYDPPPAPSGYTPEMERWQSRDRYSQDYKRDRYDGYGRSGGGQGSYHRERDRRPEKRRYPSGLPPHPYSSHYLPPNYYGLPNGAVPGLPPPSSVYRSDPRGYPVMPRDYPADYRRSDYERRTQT

B1: RTF1 (protein, UniProt Q9W261 1-775)
chain: MGKRRTQSLIDSNSSDSDSESETNLESDLMSLAKKRKKPQTAAKSSSRSDSDSDWANNKAGAPSSKKKKRQKPSRDSSSSESNWDDDSQDERQPARQSPAQTQQEHKPPEQASQPAQLSEQEEGEVSDSDSDKSKSNSSSSGSDSSSSSSSSDSEFDDGFDDDLMGDDEDRRRLNGLSEKERETEIYKRIEQREIMRTRWEIERKLKLARRGEKNQEKSKNKGERAKKKKEKREKKARKAREAQAPLPTQASTSTLLDVEPKPSNEVRSASPLSTPALNRDAASTSAAVASIMPDDAASSAGVSDYFDHKERSKERKKNVEANKTDDKRSNAMALLKAKREGKAKREEEEAKRMAEKDRDDDKEELDSVSGCKSAVKLKASEIYSDDSGSSDWDEEEKPAGKRSRSNSSKASSESEDEEKAPQRPVFITTREDLNKLRLSRYKMERFVNLPIFESTVLNCFVRISIGNNGQKPVYRVAEIVGVVETGKIYSLGTTRTNRGLRLKHGTQERVFRLEFISNQEFTENEFNKWNEVCQQSHVQMPTIDLIAIKQNDIKKALNYEFKDEDVDKIVEEKNRFRNRPTNYAMKKTCLMKERDAAMLRGDYDIAQDLGQQIDELENRASELDKRRSHTLNLISYINDRNRKKNVEDAEKAILEEARANKGLKISDPFTRRITQPRMGFKGAKKDEDDMQLAPLPPPPPGKKRPNEAGTSSASVRSTDSKDYSLYSLHDFDIDLDVPLPVNTNSVPKPASKPAETVSKRSLNLEDYKKKRGLI
- binding: no binding

Reference: publication PMC4751545
